Values of other authors in US10272082B2, “Combination ALS therapy” (Cytokinetics, Inc., priority 2011, dated 2019).

System: human hepatic microsomes
Details: in vitro; high concentrations required; cited from earlier work

CN1C(=O)CN=C(c2ccccc2)c2cc(Cl)ccc21 [diazepam]
inhibition of the metabolism of riluzole by human hepatic microsomes: inhibition has been observed
